Assay results: paper PMC11113010
No constants are given. Whether binding was seen depends on the method and setting. In cells and extracts the contact can be indirect. Some binding calls cover weakened binding; strength is not graded here.

By UniProt entry, the sequences of proteins in these tests, tags left out. Residues count along the entry.
UniProt Q9NZQ7, residues 19-290: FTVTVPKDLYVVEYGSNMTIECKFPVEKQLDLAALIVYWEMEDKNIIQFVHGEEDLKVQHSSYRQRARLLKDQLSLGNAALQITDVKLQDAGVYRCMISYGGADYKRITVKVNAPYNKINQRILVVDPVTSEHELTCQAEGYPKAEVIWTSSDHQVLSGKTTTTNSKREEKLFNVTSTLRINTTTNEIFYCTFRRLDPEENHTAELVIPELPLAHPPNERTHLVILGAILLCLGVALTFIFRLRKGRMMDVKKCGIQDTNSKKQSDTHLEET
UniProt P19256, residues 29-250: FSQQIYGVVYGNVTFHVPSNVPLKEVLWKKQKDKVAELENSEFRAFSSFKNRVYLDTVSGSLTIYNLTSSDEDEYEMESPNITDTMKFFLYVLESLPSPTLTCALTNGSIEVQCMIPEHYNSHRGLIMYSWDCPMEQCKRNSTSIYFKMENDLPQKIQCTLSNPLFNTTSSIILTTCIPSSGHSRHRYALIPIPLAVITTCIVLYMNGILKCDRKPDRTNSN

Key:
[1] = target: PD-L1 (human (endogenous in A375)) (UniProt Q9NZQ7); test: co-IP; cell surface immunoprecipitation: live A375 cells incubated with antibodies to the extracellular domains of CD58 or PD-L1 for 2 h at 4°C, unbound antibody washed off, lysis in 1% digitonin buffer, Protein G Dynabeads, immunoblot
[2] = target: CD58 (LFA-3) (human (endogenous in A375)) (UniProt P19256); test: as above
[3] = target: PD-L1 (human (endogenous in A375)) (UniProt Q9NZQ7); test: co-IP; whole-cell lysates of A375 cells in 1% digitonin, 50 mM Tris-HCl pH 7.5, 150 mM NaCl; anti-CMTM6, anti-CD58 or anti-PD-L1 antibody 2 h at 4°C, Protein G Dynabeads, immunoblot; knockout cells (CMTM6, CD58, PD-L1) as controls of antibody specificity
[4] = target: CD58 (LFA-3) (human (endogenous in A375)) (UniProt P19256); test: as above

Measured: binding

B1: CMTM6 (CKLF like MARVEL transmembrane domain containing 6) (protein, UniProt Q9NX76 1-183)
chain: MENGAVYSPTTEEDPGPARGPRSGLAAYFFMGRLPLLRRVLKGLQLLLSLLAFICEEVVSQCTLCGGLYFFEFVSCSAFLLSLLILIVYCTPFYERVDTTKVKSSDFYITLGTGCVFLLASIIFVSTHDRTSAEIAAIVFGFIASFMFLLDFITMLYEKRQESQLRKPENTTRAEALTEPLNA
binds: [1] | [2] | [3] | [4]
